Measurements from patent US20160052996A1.
These are yes or no findings as the source states them, for the method shown. Binding can be weak; no strength is given.

How the values were obtained:
[1] = target: BKV VP1 VLP (BK virus (BKV), AS strain); test: direct ELISA, antigens coated at 1 µg/mL; bar groups labelled 100 nM, 20 nM, 4 nM, 0.8 nM
[2] = target: BKV VP1 (BK virus (BKV), AS strain); test: as above
[3] = target: BKV VP1 (BK virus (BKV), AS strain); test: direct ELISA
[4] = target: BKV VP1 (BK virus (BKV), AS strain); test: direct ELISA, cross-reactivity panel; bar groups labelled 100 nM, 20 nM, 4 nM, 0.8 nM

Measured: binding

B1: NI-307.25G10 (antibody, V domains shown)
VH: EVQLVESGGGLVQPGGSLRLSCVASGIIFKDYDFHWVRQVKEKGLEWVSAIGTAGDPYYAASVKGRFTVSRENGKNSVYLRMNNVGAGDTALYYCTSGNYFDRGSFRPSAFDMWGQGTMVTVSS
VL: EIVLTQSPGTLSLSPGERATLSCWASQSVSSNYLAWYQHKPGQAPRLLIFRASRRATDIPERFSAGGSGTDFTLTISRLEAEDSAVYYCQEYGSAPPASITFGQGTRLEIK
binds: [1] | [2] | [3] | [4]

B2: NI-307.26E10 (antibody, V domains shown)
VH: EVQLVESGGGLVLPGGSLRLSCAVSGFTVRNEYMRWARQAPGRGLEWVSVIYRDGQTHHADTVKGRFDVSKDTSKNTMYLQMHNLRVDDTAIYYCARGHYGPWGQGTLVTVSS
VL: DIQMTQSPSTLPASVGDRVTITCRASQSINNWLAWYQQKPGKAPNLLIYDASNLETGVPSRFSGSGSGTEFTLTISSLQPDDFATYYCQQYNSHSHTWTFGQGTKVEIK
binds: [1] | [2] | [3] | [4]
